Here are results for one molecule from PMC9114808.

Sequences of proteins named here, by UniProt entry; tags and fusion partners are left off.
UniProt P63104: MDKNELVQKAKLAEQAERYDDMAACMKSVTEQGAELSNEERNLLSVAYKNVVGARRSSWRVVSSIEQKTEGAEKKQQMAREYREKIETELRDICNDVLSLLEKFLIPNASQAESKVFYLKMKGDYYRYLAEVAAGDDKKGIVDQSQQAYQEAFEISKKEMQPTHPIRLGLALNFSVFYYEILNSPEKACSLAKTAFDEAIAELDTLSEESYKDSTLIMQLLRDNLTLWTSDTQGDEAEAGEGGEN

Results are given in words; binding and its absence hold for the method and conditions named. Binding seen in cells or lysates may run through a third protein. Some results given as binding are weak or reduced against the parent protein; the word gives no strength. Where a sequence is shown, tags or fusion partners need not be part of it.

One assay addresses T1, HA-14-3-3 gamma (UniProt P61981).
T1 sequence: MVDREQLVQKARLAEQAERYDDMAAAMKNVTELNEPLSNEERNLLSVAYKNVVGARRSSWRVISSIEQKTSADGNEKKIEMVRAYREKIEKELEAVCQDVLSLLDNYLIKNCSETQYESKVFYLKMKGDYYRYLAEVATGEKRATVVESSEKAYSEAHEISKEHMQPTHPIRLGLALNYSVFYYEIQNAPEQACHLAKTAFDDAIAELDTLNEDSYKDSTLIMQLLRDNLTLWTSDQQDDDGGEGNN
The assay can be described thus: co-IP; HEK293T co-transfected with GFP-Sept7-WT and HA-14-3-3 gamma, zeta or both; 0.1 μM okadaic acid for 10 min before lysis; anti-HA affinity gel; blot for pT426 Sept7 and HA.

The next assay deals with HA-14-3-3 zeta (UniProt P63104). The assay is described as above.

B1: GFP-tagged Sept7-WT, phosphorylated at T426 (protein, UniProt Q16181 1-437)
chain: MSVSARSAAAEERSVNSSTMVAQQKNLEGYVGFANLPNQVYRKSVKRGFEFTLMVVGESGLGKSTLINSLFLTDLYSPEYPGPSHRIKKTVQVEQSKVLIKEGGVQLLLTIVDTPGFGDAVDNSNCWQPVIDYIDSKFEDYLNAESRVNRRQMPDNRVQCCLYFIAPSGHGLKPLDIEFMKRLHEKVNIIPLIAKADTLTPEECQQFKKQIMKEIQEHKIKIYEFPETDDEEENKLVKKIKDRLPLAVVGSNTIIEVNGKRVRGRQYPWGVAEVENGEHCDFTILRNMLIRTHMQDLKDVTNNVHYENYRSRKLAAVTYNGVDNNKNKGQLTKSPLAQMEEERREHVAKMKKMEMEMEQVFEMKVKEKVQKLKDSEAELQRRHEQMKKNLEAQHKELEEKRRQFEDEKANWEAQQRILEQQNSSRTLEKNKKKGKIF
modifications: phosphothreonine at T426 (detected with the pT426 antibody)
For the molecule B1, the binding entry in the assay with HA-14-3-3 gamma is “binds”; in the assay with HA-14-3-3 zeta, “no binding”.
